Experimental data: publication doi:10.1101/858852
No constants are given. Whether binding was seen depends on the method and setting. In cells and extracts the contact can be indirect. Some binding calls cover weakened binding; strength is not graded here.

The chains behind the UniProt entries cited, without tags or fusion partners.
UniProt P51532: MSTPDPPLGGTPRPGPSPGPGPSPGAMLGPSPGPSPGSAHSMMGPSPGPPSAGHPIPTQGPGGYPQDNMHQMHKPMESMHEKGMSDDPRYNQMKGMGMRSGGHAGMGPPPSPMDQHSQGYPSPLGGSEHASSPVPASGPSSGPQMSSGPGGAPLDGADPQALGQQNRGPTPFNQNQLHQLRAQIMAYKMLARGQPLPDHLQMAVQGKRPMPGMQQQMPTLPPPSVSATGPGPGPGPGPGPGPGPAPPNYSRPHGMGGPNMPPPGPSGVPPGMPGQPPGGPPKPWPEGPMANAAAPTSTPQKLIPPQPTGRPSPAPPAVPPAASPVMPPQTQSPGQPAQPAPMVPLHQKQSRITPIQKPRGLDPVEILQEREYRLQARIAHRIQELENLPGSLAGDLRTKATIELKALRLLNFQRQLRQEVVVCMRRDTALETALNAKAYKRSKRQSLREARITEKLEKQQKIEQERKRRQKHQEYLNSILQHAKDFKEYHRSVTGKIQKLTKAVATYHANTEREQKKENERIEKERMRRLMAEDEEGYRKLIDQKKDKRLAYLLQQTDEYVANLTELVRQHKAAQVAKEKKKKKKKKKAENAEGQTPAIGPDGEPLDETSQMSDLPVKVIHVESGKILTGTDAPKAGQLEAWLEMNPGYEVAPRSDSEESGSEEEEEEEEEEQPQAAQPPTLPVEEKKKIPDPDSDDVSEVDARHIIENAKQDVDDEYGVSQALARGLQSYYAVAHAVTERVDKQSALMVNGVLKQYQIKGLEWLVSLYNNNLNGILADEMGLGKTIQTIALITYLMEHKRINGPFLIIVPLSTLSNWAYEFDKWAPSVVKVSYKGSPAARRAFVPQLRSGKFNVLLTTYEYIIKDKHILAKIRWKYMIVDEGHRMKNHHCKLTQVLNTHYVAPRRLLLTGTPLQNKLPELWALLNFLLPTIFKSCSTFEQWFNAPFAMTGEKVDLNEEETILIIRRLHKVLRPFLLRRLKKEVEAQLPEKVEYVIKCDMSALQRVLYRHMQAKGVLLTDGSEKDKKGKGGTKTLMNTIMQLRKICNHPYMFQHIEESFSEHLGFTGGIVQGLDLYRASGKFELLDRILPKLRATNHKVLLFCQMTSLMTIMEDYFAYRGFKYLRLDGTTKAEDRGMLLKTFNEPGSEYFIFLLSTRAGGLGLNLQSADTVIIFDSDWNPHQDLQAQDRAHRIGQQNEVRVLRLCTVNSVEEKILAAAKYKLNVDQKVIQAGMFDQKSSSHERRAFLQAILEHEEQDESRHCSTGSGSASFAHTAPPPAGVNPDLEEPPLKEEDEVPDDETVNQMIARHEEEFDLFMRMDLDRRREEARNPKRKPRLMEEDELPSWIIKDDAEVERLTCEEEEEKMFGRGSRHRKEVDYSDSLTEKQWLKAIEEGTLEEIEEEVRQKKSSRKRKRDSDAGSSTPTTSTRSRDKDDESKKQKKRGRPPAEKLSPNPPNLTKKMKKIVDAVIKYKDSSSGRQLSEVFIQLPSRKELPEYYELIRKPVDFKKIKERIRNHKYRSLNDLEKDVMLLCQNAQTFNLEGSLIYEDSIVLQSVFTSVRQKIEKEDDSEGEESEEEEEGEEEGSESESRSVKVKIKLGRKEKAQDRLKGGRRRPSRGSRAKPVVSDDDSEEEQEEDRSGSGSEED
UniProt O75533: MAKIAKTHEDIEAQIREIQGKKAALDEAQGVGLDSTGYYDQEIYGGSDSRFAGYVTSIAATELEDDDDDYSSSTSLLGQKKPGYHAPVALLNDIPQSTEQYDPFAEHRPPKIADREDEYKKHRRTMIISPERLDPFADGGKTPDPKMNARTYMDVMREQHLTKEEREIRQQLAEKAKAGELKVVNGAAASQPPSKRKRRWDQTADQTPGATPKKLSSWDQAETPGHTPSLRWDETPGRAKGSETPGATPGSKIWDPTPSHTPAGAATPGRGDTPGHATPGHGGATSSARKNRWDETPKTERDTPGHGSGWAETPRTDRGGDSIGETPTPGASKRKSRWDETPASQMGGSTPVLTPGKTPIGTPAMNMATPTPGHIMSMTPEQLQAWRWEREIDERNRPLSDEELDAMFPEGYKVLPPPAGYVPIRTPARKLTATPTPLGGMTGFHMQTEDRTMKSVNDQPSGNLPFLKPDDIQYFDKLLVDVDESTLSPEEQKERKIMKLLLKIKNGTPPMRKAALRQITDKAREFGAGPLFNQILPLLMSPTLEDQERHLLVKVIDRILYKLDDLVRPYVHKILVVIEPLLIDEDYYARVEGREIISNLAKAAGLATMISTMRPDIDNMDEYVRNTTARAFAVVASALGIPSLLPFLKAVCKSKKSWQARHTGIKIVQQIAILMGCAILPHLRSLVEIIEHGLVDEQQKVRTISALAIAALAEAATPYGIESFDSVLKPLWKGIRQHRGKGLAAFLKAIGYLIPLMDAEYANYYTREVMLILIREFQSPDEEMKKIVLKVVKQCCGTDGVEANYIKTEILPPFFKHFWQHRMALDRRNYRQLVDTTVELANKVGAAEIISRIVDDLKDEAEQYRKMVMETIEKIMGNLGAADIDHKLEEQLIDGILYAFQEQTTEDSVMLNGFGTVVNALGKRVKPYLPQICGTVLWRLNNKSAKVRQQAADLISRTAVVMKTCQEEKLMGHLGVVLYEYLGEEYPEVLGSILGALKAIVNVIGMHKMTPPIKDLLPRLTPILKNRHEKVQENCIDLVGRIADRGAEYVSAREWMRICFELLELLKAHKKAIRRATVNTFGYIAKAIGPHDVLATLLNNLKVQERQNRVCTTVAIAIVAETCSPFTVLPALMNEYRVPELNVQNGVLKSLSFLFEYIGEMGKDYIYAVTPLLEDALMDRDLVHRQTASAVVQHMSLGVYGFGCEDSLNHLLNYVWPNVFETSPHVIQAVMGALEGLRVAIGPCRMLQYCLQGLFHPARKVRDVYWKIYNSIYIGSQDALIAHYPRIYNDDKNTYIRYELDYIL

Target: BRG1 (human (endogenous in HeLa)) (UniProt P51532)
Test: co-IP

Row | binding | Molecule
1 | binds | SAP155 (from UniProt O75533 1-1304)
2 | binds | hnRNPL (protein, UniProt P14866 1-589) MSRRLLPRAEKRRRRLEQRQQPDEQRRRSGAMVKMAAAGGGGGGGRYYGGGSEGGRAPKRLKTDNAGDQHGGGGGGGGGAGAAGGGGGGENYDDPHKTPASPVVHIRGLIDGVVEADLVEALQEFGPISYVVVMPKKRQALVEFEDVLGACNAVNYAADNQIYIAGHPAFVNYSTSQKISRPGDSDDSRSVNSVLLFTILNPIYSITTDVLYTICNPCGPVQRIVIFRKNGVQAMVEFDSVQSAQRAKASLNGADIYSGCCTLKIEYAKPTRLNVFKNDQDTWDYTNPNLSGQGDPGSNPNKRQRQPPLLGDHPAEYGGPHGGYHSHYHDEGYGPPPPHYEGRRMGPPVGGHRRGPSRYGPQYGHPPPPPPPPEYGPHADSPVLMVYGLDQSKMNCDRVFNVFCLYGNVEKVKFMKSKPGAAMVEMADGYAVDRAITHLNNNFMFGQKLNVCVSKQPAIMPGQSYGLEDGSCSYKDFSESRNNRFSTPEQAAKNRIQHPSNVLHFFNAPLEVTEENFFEICDELGVKRPSSVKVFSGKSERSSSGLLEWESKSDALETLGFLNHYQMKNPNGPYPYTLKLCFSTAQHAS
